# Library screen at single concentrations

The chains behind the UniProt entries cited, without tags or fusion partners. Residues count along the entry.
UniProt Q4DA54, 1-478: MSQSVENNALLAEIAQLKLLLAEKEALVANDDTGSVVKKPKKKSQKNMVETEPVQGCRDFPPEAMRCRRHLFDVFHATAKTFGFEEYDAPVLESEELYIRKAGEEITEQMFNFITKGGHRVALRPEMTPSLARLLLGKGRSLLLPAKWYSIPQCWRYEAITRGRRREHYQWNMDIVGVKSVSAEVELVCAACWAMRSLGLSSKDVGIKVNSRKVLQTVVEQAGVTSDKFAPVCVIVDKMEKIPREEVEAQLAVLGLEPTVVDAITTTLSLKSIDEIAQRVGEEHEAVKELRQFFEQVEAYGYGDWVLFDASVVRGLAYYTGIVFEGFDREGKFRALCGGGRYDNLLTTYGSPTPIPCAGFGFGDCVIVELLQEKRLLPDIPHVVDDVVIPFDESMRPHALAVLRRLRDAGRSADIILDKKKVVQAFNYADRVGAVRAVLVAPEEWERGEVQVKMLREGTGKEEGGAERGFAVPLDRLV
UniProt A4I591, 1-473: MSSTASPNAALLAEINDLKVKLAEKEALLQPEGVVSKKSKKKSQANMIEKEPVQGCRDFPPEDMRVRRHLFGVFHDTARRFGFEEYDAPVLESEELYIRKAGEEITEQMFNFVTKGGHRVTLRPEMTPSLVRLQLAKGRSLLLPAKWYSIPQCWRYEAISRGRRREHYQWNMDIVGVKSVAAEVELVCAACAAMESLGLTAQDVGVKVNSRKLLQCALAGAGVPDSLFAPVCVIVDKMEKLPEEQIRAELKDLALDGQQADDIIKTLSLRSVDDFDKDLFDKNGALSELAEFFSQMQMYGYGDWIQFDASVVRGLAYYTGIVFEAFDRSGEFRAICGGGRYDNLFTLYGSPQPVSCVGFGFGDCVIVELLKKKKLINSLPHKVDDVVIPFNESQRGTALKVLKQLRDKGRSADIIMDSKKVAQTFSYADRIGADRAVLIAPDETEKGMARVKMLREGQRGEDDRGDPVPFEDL

From ChEMBL document CHEMBL3988442, “University of Dundee, Small-Polar-MMV Screening Library” (2021).

TcHisRS: 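Enzyme assay of histidyl-tRNA synthetase; the read-out is not stated. Target: Histidine-tRNA ligase, Trypanosoma cruzi CL Brener (UniProt Q4DA54). Compounds at 30 µM. Higher reads as stronger inhibition (inferred: compounds with an IC50 in retests scored well above the rest). About 69,000 compounds were tested under these conditions; 0.045% (about 31) showed 50% or more at least once.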
LiHisRS: 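Enzyme assay of histidyl-tRNA synthetase; the read-out is not stated. Target: Histidine-tRNA ligase, Leishmania infantum (UniProt A4I591). Concentration: 30 µM. The record gives no direction; compounds that gave an IC50 in retests scored well above the rest, so higher reads as stronger inhibition. The assay is labelled LdHisRS but filed under L. infantum. About 69,000 compounds were tested under these conditions; 0.6% (about 410) showed 50% or more at least once.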

The filed quantity is “Percent Effect” (%).
The controls that fix the scale are not given in the record; negative values are as filed.
Compounds were drawn at random from those tested, without regard to their results.

| SMILES | TcHisRS | LiHisRS |
|---|---|---|
| `CCOc1ccc2ccccc2c1CNCC1CCS(=O)(=O)C1` (stereo not shown) | 10.23% | 11.67% |
| `CCC1COC2(CCN(C(=O)c3ccco3)CC2)C1` (stereo not shown) | 2.941% | 18% |
| `O=C(c1ccco1)N1CCO[C@@H]2CN(Cc3nccs3)CC[C@@H]2C1` | 2.21% | 6.306% |
| `Cc1cccc(CNCc2c(C(C)C)nn(C)c2N2CCOCC2)n1` | 4.132% | 13.46% |
| `O=C1[C@@H]2CN(c3ncnc4sccc34)C[C@]2(C(=O)O)CN1CC1CC1` | 4% | 8.197% |
| `CC(c1nccs1)N(C)C(=O)c1cc(CN(C)Cc2ccccc2)on1` (stereo not shown) | 5.357% | 20.43% |
| `CC(C)COCc1cncc2c1CCN(C(=O)c1cscn1)C2` | 9.548% | 19.8% |
| `O=C(C1CC1)N1CCC2(CCN2Cc2ccc(F)cc2)C1` (stereo not shown) | 1.942% | 5.769% |
| `Cn1c(-c2cc3n(n2)CCCN(CC(=O)O)C3)nc2ccccc21` | 4.721% | 6.557% |
| `O=C(Cn1c(=O)nc2n1C(=O)N(c1ccccc1)C2)NC1CCCCC1` | 6.061% | 18.18% |
| `CCC(C)n1cnc(S(=O)(=O)N(C)c2cccnc2N(C)C)c1` (stereo not shown) | 2.381% | 15.56% |
| `CCCN1CCCn2nc(CNS(=O)(=O)c3ccc(F)cc3)cc2C1` | -2.242% | 20% |
| `Cc1nc(-c2ccncc2)ncc1C(C)NC(=O)CN1CCOC1=O` (stereo not shown) | -0.8% | 3.279% |
| `CCN(CC)c1nc(O)cc(C(C)n2ncc3ccccc3c2=O)n1` (stereo not shown) | 3.448% | 11.51% |
| `CC(O)CN1CCN(C(=O)c2ccc(Br)o2)CC1` (stereo not shown) | 5.703% | 23.2% |
| `O=C(c1cccnc1N1CCOCC1)N1CCCC1Cn1cccn1` (stereo not shown) | -0.3774% | 8% |
| `CCC(C)Oc1cc(C(=O)Nc2nc(C)ns2)ccn1` (stereo not shown) | -17.24% | 14.52% |
| `COCCN(Cc1nccs1)C(=O)c1c(C)cc(C)[nH]c1=O` | 0.5525% | -4.225% |
| `CCSCCNC(=O)c1ccc(S(=O)(=O)N2C[C@@H]3C[C@H]2CN3)cc1` | 7.216% | 2.857% |
| `CS(=O)(=O)N1CCN(c2cc(N3CCCC3CO)ncn2)CC1` (stereo not shown) | 0.5525% | 0% |
| `NC(=O)CN(C(=O)C1Cc2cc(Cl)ccc2O1)C1CCCC1` (stereo not shown) | -1.554% | -2.151% |
| `CNC(=O)[C@H]1C[C@@H]2CN(C(=O)c3cncc(C)c3)C[C@@H]2N1C` | 7.216% | 12% |
| `Cc1ccc(NC(=O)Cn2ccc3c(=O)n(C)ccc32)cc1F` | 4.523% | 0% |
| `CC(C)NC(=O)C(C(C)C)n1cnc2cc(F)c(F)cc21` (stereo not shown) | 2.105% | 27.4% |
| `O=C(CNC(=O)c1ccccc1I)NCc1ccccc1F` | -0.8696% | 10% |
| `CC(=O)Nc1ccc(CCC2(NC(=O)C3CC3)CCCCC2)cn1` | 7.28% | 7.143% |
| `CN1CCC2(CCCN(c3nccc(C(F)(F)F)n3)C2)CC1` | 2.913% | 13.59% |
| `Cc1cc(C)cc(C(=O)NCc2ncnn2C)c1` | 9.091% | 17.14% |
| `O=C(N1CCCC1)N1CCC2(CC(=O)N(c3ccc4c(c3)OCO4)C2)C1` (stereo not shown) | 9.195% | 24% |
| `O=c1n(CCSCc2ccccc2Cl)nc2ccccn12` | -3.361% | -76.03% |
| `CCOCC1CN(C)Cc2cnn(CC3CCCC3)c21` (stereo not shown) | -0.8264% | 1.905% |
| `COc1ccc(CNC(C)c2cccc(Cl)c2)c(OC)c1OC` (stereo not shown) | 2.075% | 8.738% |
| `COc1ccc(CNC[C@@]2(COc3cccnc3)C[C@@H](O)[C@@H](O)C2)cc1` | -4.348% | 22.97% |
| `CCO[C@H]1CC[C@H]2[C@H]1OCCN2C(=O)CC1=CCCCC1` | -12.85% | -7.692% |
| `O=C(C1CCCC1)N1CC2(CCN(C3COC3)CC2)Cc2ccccc21` | 2.959% | 4.138% |
| `CC(C)N1CCC(N2CCN(C3CCCCC3)CC2CCO)CC1` (stereo not shown) | -1.339% | 11.11% |
| `O=C(O)[C@@H]1CCN(C(=O)c2cscn2)[C@@H]1c1ccc(F)cc1` | 7.692% | 8.451% |
| `O=C(NC1CCc2ccccc2C1)N1CCN(C(=O)C2CCC2)CC1` (stereo not shown) | 8.38% | 7.895% |
| `CC(C)OCCC(=O)Nc1cccc(N2CCN(CC3CC3)CC2)c1` | 9.524% | 15.15% |
| `CN(CCN1CCOCC1)S(=O)(=O)CC1CCCC1` | 3.784% | 3.419% |
| `COc1ccccc1OCCN(C)c1cc(C)nc(N)n1` | 2.762% | -1.042% |
| `COc1cccc2c1OCC(CNC(=O)CSc1ccccn1)C2` (stereo not shown) | 6.522% | 25% |
| `CC(C#N)CN(C)C(=O)CCNC(=O)OC(C)(C)C` (stereo not shown) | 11% | 14.29% |
| `CC(=O)N1CCc2nc(C3CCN(c4ncccn4)C3)ncc2C1` (stereo not shown) | 4.478% | -3.158% |
| `O=C(c1cc(F)cc(F)c1)N1CCC(O)(C(F)(F)F)CC1` | 4.04% | 13.83% |
| `O=C(c1ccco1)N1CCC2(CCC(=O)N2Cc2cccc(F)c2)CC1` | 5.263% | 26.83% |
| `CC(=O)N1CC[C@H]2OCC[C@@]2(C(=O)NCCc2ccccn2)C1` | 0% | 1.923% |
| `Cc1ccc(CNC[C@H]2Cn3cc(-c4ccccc4)nc3CO2)cc1` | 11.96% | 17.57% |
| `Cc1cc(CS(=O)(=O)N(C)C(C)c2ccc(Cl)cc2)on1` (stereo not shown) | -3.03% | 12.7% |
| `COc1cccc(COC(C)C(=O)NCc2nnc3n2CCC3)c1` (stereo not shown) | 5.882% | -1.667% |
| `Cc1cc(NC(=O)CCc2ccsc2)n(C)n1` | 0% | 18.27% |
| `Cc1cccc(N2CCC(N3CCCC4(CN(C)C(=O)O4)C3)CC2)c1C` (stereo not shown) | 6.878% | 14.71% |
| `Cn1cc(NC(=O)Cc2ccccc2Br)cc1C(N)=O` | 2.762% | -2.073% |
| `COC(=O)CCNC(=O)c1cc(Br)c2c(c1)OCCO2` | 8.046% | 14.52% |
| `COc1ccccc1CC(C)(C)NC(=O)CN(C)C(C)C` | -37.93% | 4.464% |
| `CCC(C)C(=O)NCCCn1nc(C)cc1C` (stereo not shown) | 8% | 16.44% |
| `O=C(c1ccncc1)N1CCc2[nH]nc(Nc3ccccc3)c2C1` | 6.061% | 9.859% |
| `CC(C)N1CCc2[nH]nc(C(=O)N3CCOCC3)c2C1` | 7.767% | 15.53% |
| `CN(c1ccc(F)c(F)c1)S(=O)(=O)c1cc2c(c(C(=O)O)c1)OCCO2` | 3.012% | 28.57% |
| `CC(C)(CNC(=O)C1(c2cccc(Br)c2)CCOCC1)C(=O)O` | 5.102% | 5.714% |
| `CCOc1ccc(C(C)Nc2ncnc3c2CCNC3)cc1OCC` (stereo not shown) | 21.84% | 27.42% |
| `NC(=O)C1CCN(CC(=O)NCCc2c(F)cccc2F)CC1` | 3.191% | 25% |
| `Cc1nc2n(n1)CC(NCc1cc(Cl)c3c(c1)OCCO3)CC2` (stereo not shown) | 7.429% | 13.46% |
| `O=C(Nc1ccc(-c2cnc(NCCO)nc2)cc1)[C@@H]1CCCCN1` | 5.65% | 14.29% |
| `Cn1nccc1C(=O)N1CCC2(CC1)COC(COc1ccccn1)C2` (stereo not shown) | 15.7% | 16.36% |
| `CN(C)CCn1c(=O)n(C)c(=O)c2ccccc21` | 7.921% | 17.39% |
| `CN(Cc1nccn1C)C1CCCN(CCCc2ccccc2)C1` (stereo not shown) | 5.528% | 7.2% |
| `Cn1cc(CN2CCCN(C(=O)c3sccc3C#N)CC2)cn1` | -0.5714% | 20.34% |
| `COCCN1CCN(Cc2ccoc2)Cc2cccnc21` | 7.563% | 10.09% |
| `CCOCC1c2c(ncn2C)CCN1C(=O)c1cscn1` (stereo not shown) | -4.523% | 9.901% |
| `Cc1cc(C)n(C2CN(c3nc(-c4ccncc4)nc4c3CCC4)C2)n1` | 15.15% | 17.78% |
| `O=C(O)CN1CCC(F)(F)C2(CCN(c3ccccn3)C2)C1` (stereo not shown) | -1.604% | 11.11% |
| `CN1CCN(CC2CC2)C(=O)C12CCN(C(=O)c1cnccn1)CC2` | 4.301% | 12.28% |
| `O=C(CCc1ccsc1)N1CCC(N2CCNC2=O)CC1` | 4.956% | 9.735% |
| `CCc1ncnc(N2CCOCC2C(N)=O)c1F` (stereo not shown) | 2.97% | 0% |
| `CCC(CC)NC(=O)CN1CCN(C(=O)N(C)C)CC1` | 3.279% | 21.92% |
| `COC(=O)c1cccn1C1CCN(C(=O)c2cc(F)ccc2F)CC1` | 0% | 19.18% |
| `CCC1c2ccsc2CCN1C(=O)NCc1ccccn1` (stereo not shown) | 0.7634% | 10.64% |
| `Cc1nc(C2CCCN2CC(=O)NCCc2ccc(Cl)cc2)no1` (stereo not shown) | 4.094% | 5.455% |
| `CCN1CCN(C(=O)c2ccc(OC)nn2)c2ccccc21` | 10.84% | 32% |
| `CCNC(=O)NCC1(CN2CCOCC2)CCCCC1` | 5.752% | 16.81% |
| `CNCCc1nc2cc(Cl)ccc2[nH]1` | 3.734% | 14.56% |
| `Cc1ccc(-c2ccc(=O)n(CC(=O)Nc3nccs3)n2)cc1` | 7% | 6.849% |
| `CS(=O)(=O)NCC1CCCCN1Cc1cccc(C#N)c1` (stereo not shown) | 0% | 9.917% |

Some entries from above, unchanged:

- CCN1CCN(C(=O)c2ccc(OC)nn2)c2ccccc21 : TcHisRS: 10.84%; LiHisRS: 32%
- CCC(C)Oc1cc(C(=O)Nc2nc(C)ns2)ccn1 (stereo not shown) : TcHisRS: -17.24%; LiHisRS: 14.52%
- O=C(C1CC1)N1CCC2(CCN2Cc2ccc(F)cc2)C1 (stereo not shown) : TcHisRS: 1.942%; LiHisRS: 5.769%
- Cn1c(-c2cc3n(n2)CCCN(CC(=O)O)C3)nc2ccccc21 : TcHisRS: 4.721%; LiHisRS: 6.557%
- CCC(CC)NC(=O)CN1CCN(C(=O)N(C)C)CC1 : TcHisRS: 3.279%; LiHisRS: 21.92%